Results reported in publication PMC8437979.

Chains of the proteins cited; added tags and fusions are not shown.
UniProt Q99942: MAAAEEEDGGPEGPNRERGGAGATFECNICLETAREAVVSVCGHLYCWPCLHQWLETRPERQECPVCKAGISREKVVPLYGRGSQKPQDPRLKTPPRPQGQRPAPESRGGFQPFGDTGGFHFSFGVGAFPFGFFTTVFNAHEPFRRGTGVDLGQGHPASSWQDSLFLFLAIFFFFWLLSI
UniProt Q09028: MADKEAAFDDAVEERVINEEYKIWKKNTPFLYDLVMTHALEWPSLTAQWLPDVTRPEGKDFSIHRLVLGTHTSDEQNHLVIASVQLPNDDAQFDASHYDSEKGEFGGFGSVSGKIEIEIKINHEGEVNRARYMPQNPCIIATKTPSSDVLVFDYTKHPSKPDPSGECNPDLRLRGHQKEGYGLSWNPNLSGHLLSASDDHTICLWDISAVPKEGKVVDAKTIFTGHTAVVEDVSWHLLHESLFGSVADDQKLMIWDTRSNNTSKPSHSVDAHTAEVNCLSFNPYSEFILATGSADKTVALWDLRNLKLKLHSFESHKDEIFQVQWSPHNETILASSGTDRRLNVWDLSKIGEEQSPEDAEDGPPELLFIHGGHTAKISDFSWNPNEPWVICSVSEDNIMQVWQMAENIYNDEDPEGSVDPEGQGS

These molecules were tested against Doxycycline-inducible Flag-tagged RNF5 (WT) in MOLM-13 cells (UniProt Q99942) (assay: affinity purification with mass spectrometry; lysates of MOLM-13 cells expressing doxycycline-inducible Flag-tagged RNF5 versus empty vector (doxycycline 1 µg/mL 48 h; MG132 10 µM 4 h before harvest); TBS-lysis buffer; anti-Flag-M2-agarose overnight at 4 °C; elution with 3×Flag peptide; LC-MS/MS).

| binding | Molecule |
| --- | --- |
| binds | Endogenous RBBP4 (retinoblastoma binding protein 4) of MOLM-13 cells (from UniProt Q09028 1-425) |
| binds | VCP (from UniProt P55072 1-806) |
| binds | S100A8 (protein, UniProt P05109 1-93) MLTELEKALNSIIDVYHKYSLIKGNFHAVYRDDLKKLLETECPQYIRKKGADVWFKELDINTDGAVNFQEFLILVIKMGVAAHKKSHEESHKE |

These are yes or no findings as the source states them, for the method shown. Binding seen in cells or lysates may run through a third protein. Here binding means that the protein was enriched with, or labelled near, the bait; the list need not be complete.
